This is one part of the list.
Compound: CC1Cc2ccccc2N1C(=O)C1CCCN(C1)C(=O)CCl (mixture of isomers) [TRIM25 ligand 11 (diastereomer mixture)]
Test: probe-labelled cysteine peptide fold change vs DMSO (competition) (log2 fold change); higher = less target engagement (more negative = stronger competition)
Settings: THP-1, incubation time: 4 h
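Also: competitive chemoproteomic profiling in live THP-1 cells with an iodoacetamide desthiobiotin (IA-DTB) probe, comparing probe-labelled peptide intensities in compound-treated cells against DMSO-treated controls.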

Amino acid sequences for entries named in this document (tags omitted). A change or cut given only in a name is not applied to a line headed by its entry.
UniProt Q16875: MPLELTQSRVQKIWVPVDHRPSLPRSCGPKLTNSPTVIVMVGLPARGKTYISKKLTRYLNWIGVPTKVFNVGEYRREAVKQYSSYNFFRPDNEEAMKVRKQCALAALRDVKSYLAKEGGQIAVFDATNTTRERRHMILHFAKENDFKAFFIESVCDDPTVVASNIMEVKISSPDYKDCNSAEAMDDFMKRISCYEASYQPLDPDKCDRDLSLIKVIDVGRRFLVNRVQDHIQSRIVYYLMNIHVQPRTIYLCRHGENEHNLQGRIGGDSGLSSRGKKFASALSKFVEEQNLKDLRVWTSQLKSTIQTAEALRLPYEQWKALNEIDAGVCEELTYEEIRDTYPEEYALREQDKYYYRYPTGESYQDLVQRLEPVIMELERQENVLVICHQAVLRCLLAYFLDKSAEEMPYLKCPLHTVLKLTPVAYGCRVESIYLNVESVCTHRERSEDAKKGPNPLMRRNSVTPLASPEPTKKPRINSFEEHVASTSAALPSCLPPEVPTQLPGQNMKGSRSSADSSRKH
UniProt P52209: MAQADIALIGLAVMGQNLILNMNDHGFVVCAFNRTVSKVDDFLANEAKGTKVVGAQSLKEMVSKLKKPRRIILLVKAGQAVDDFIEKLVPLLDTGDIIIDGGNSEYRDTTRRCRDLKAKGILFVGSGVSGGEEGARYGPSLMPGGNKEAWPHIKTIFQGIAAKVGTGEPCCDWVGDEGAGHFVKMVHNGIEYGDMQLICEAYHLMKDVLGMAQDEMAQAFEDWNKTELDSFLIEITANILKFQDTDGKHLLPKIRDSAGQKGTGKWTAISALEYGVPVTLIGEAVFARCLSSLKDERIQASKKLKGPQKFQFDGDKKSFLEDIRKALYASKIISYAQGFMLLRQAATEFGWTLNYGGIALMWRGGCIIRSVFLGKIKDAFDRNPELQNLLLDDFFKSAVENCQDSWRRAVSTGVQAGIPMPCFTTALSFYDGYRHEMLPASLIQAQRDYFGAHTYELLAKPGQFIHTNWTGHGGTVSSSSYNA
UniProt Q96QT6: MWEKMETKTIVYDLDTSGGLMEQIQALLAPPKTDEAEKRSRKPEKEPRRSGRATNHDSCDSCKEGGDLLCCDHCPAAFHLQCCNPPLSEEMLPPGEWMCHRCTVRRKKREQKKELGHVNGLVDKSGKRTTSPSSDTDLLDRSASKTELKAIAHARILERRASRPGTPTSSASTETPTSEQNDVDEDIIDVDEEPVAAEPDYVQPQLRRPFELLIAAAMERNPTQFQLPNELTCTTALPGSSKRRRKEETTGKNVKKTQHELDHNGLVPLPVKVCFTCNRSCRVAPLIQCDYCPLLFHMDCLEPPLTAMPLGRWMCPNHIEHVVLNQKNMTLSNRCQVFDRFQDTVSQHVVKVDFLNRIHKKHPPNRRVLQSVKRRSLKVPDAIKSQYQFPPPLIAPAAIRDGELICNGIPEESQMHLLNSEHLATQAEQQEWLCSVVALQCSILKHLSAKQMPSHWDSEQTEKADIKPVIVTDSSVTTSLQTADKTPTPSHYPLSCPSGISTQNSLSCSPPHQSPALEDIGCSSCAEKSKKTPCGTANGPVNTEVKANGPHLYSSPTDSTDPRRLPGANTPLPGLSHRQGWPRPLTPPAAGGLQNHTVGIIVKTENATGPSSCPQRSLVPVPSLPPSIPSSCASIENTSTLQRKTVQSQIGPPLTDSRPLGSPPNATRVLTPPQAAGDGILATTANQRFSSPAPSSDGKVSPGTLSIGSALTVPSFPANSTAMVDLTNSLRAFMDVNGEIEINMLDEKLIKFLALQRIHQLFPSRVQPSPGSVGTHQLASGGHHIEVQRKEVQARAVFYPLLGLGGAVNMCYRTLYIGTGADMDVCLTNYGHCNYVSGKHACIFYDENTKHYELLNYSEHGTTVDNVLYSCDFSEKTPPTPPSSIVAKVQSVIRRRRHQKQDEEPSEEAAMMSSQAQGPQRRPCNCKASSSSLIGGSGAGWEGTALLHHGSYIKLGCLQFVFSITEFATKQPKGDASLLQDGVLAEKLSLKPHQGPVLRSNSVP
UniProt O95336: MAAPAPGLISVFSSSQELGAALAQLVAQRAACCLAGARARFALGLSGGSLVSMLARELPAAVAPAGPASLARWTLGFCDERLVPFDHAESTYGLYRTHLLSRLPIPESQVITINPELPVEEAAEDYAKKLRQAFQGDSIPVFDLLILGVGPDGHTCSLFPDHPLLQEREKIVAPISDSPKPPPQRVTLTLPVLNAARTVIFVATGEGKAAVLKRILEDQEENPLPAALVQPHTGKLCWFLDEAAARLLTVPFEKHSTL
UniProt P00558: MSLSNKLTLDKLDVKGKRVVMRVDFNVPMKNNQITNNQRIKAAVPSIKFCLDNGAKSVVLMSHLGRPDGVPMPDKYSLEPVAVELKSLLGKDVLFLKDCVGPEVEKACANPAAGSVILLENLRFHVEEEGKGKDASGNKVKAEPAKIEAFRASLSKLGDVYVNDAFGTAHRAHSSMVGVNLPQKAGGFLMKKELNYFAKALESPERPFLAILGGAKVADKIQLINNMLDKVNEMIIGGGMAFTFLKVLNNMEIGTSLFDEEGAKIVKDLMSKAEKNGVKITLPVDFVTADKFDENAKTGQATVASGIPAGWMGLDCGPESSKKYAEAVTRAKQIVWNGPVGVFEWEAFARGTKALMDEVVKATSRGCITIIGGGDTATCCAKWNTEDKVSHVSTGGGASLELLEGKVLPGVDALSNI
UniProt Q01813: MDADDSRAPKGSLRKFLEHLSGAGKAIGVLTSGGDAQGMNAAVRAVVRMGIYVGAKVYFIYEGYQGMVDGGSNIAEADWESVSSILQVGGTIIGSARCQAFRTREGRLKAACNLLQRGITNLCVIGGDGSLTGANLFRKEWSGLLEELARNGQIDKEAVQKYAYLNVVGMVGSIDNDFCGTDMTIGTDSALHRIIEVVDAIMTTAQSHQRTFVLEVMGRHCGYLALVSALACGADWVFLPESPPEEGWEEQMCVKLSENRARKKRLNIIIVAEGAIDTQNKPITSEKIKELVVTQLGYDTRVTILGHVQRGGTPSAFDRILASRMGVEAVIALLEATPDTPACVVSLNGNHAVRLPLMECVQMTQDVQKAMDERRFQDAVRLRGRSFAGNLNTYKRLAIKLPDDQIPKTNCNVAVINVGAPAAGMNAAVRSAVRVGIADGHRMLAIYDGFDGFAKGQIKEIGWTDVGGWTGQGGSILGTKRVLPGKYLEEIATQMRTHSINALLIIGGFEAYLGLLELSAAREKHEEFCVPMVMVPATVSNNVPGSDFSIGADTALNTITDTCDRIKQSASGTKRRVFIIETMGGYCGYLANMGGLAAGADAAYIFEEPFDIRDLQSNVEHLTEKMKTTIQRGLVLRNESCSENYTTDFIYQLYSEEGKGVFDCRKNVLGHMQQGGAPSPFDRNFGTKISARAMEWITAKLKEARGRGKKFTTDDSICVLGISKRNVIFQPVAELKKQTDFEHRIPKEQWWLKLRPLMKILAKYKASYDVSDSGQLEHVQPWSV
UniProt P46020: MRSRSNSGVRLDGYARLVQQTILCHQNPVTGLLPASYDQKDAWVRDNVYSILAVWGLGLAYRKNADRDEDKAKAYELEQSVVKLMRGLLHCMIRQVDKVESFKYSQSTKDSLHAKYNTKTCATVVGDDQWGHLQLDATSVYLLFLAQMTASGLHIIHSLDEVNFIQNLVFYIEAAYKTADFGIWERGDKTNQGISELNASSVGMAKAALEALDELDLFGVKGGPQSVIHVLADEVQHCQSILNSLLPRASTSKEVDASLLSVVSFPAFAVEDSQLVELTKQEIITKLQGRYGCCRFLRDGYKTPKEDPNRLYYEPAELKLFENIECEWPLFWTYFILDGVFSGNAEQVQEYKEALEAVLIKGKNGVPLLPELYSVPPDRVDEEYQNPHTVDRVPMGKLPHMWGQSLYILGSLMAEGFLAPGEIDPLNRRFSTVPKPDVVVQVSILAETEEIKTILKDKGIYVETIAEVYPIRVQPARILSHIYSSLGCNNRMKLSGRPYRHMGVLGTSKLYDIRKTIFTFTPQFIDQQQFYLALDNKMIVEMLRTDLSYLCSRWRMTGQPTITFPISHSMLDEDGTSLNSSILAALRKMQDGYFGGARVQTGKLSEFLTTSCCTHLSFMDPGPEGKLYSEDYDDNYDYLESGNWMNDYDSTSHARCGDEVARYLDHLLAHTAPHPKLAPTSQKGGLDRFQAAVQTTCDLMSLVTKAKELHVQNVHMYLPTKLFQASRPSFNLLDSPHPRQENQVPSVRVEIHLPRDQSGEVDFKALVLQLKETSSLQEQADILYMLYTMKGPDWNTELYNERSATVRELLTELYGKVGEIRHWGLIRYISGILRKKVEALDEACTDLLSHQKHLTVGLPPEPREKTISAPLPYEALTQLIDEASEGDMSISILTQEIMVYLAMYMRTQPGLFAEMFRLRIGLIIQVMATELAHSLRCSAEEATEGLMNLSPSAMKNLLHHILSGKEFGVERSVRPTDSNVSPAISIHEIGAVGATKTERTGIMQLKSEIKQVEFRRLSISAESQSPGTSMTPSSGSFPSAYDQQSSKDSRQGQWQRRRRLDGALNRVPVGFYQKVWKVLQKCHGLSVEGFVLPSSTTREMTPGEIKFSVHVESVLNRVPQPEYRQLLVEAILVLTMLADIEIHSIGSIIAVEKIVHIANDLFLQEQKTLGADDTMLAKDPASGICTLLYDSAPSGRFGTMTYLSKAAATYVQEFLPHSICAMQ
UniProt Q6ZUJ8: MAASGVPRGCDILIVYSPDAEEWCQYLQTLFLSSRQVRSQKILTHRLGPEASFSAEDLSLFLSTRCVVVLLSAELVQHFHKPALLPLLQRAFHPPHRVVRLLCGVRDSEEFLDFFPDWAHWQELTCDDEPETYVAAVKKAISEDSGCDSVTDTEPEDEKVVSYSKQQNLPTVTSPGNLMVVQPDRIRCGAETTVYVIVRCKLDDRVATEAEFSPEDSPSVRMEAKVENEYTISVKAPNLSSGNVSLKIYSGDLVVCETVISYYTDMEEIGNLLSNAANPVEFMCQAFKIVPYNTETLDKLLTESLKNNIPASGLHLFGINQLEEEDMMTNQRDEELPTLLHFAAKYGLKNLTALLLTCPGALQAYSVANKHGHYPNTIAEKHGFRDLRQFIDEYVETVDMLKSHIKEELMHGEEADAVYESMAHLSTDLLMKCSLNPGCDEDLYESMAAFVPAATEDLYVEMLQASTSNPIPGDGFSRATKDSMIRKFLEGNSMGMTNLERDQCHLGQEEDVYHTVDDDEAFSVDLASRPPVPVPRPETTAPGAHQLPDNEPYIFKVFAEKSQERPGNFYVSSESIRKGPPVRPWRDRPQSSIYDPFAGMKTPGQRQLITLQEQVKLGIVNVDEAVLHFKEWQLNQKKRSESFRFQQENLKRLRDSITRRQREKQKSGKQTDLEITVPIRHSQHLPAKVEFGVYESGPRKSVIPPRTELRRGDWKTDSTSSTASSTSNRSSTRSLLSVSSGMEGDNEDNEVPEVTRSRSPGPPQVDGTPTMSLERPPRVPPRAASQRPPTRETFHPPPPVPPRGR
UniProt Q93100: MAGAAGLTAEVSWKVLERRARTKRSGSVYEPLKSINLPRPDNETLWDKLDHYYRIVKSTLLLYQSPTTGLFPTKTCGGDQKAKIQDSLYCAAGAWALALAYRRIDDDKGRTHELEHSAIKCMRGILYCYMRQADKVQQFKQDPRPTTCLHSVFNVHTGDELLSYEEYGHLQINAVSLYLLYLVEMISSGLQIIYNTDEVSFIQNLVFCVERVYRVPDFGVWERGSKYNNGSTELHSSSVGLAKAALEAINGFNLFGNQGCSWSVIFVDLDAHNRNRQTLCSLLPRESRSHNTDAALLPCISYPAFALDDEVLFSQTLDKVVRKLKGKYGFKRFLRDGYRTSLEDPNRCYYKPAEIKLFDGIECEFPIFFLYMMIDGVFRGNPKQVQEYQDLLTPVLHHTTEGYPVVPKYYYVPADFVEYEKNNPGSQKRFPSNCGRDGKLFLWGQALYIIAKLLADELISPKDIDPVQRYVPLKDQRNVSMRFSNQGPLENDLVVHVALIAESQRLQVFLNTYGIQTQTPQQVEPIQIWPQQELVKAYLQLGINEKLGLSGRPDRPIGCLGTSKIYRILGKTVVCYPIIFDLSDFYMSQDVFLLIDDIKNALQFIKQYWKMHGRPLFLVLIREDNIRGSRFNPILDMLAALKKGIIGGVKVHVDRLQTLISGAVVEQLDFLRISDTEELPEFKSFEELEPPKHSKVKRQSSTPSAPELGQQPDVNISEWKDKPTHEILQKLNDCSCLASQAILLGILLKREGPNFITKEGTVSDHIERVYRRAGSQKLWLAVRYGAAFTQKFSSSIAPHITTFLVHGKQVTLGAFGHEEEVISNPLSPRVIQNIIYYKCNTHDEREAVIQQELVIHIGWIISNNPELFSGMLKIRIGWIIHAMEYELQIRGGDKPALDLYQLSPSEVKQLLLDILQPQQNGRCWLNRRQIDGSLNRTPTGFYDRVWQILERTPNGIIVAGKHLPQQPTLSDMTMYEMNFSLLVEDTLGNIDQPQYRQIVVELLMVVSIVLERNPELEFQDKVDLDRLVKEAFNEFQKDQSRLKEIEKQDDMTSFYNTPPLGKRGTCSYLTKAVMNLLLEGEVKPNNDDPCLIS

| Target | probe-labelled cysteine peptide fold change (10 µM) | probe-labelled cysteine peptide fold change (50 µM) |
| --- | --- | --- |
| PFKFB3_Q16875_427_LTPVAYGCR (UniProt Q16875) | 0.0292 | 0.22 |
| PIK3C2A_O00443_13_ECPSSHPEPTR (UniProt O00443) | 0.0858 | -0.104 |
| PGD_P52209_422_AVSTGVQAGIPMPCFTTALSFYDGYR (UniProt P52209) | 0.175 | -0.348 |
| PFN2_P35080_84_DSLYVDGDCTMDIR (UniProt P35080) | 0.403 | 0.375 |
| PEX14_O75381_342_MEVQGEEEKREDKEDEEDEEDDDVSHVDEEDCLGVQR (UniProt O75381) | -0.255 | -0.116 |
| PFAS_O15067_336_DVQCTGR (UniProt O15067) | -0.0475 | -0.0576 |
| PHF12_Q96QT6_315_WMCPNHIEHVVLNQK (UniProt Q96QT6) | 0.202 | 0.00759 |
| PGGT1B_P53609_369_QCSENVHIST (UniProt P53609) | 0.226 | -0.414 |
| PDXK_O00764_112_LVYVCDPVLGDKWDGEGSMYVPEDLLPVYK (UniProt O00764) | -0.144 | -0.239 |
| PGLS_O95336_237_LCWFLDEAAAR (UniProt O95336) | -0.0391 | -0.0594 |
| PHGDH_O43175_19_KVLISDSLDPCCR (UniProt O43175) | -0.362 | -0.232 |
| PEPD_P12955_467_IEEDVVVTDSGIELLTCVPR (UniProt P12955) | 0.432 | -0.00394 |
| PGK1_P00558_379_GCITIIGGGDTATCCAK (UniProt P00558) | 0.0952 | 0.168 |
| PFKP_Q01813_718_FTTDDSICVLGISK (UniProt Q01813) | 0.00213 | 0.0649 |
| PHKA1_P46020_24_LVQQTILCHQNPVTGLLPASYDQK (UniProt P46020) | 0.0392 | -0.000933 |
| PIAS2_O75928_346_VSLMCPLGK (UniProt O75928) | -0.148 | 0.0304 |
| PFKL_P17858_170_TYSHLNIAGLVGSIDNDFCGTDMTIGTDSALHR (UniProt P17858) | 0.137 | -0.0944 |
| PEX6_Q13608_474_GPPGCGK (UniProt Q13608) | 0.0711 | 0.167 |
| PIAS1_O75925_335_VSLLCPLGK (UniProt O75925) | 0.0547 | 0.0799 |
| PHF12_Q96QT6_613_TENATGPSSCPQR (UniProt Q96QT6) | 0.0325 | -0.224 |
| PHF2_O75151_8_ATVPVYCVCR (UniProt O75151) | 0.0168 | 0.352 |

| Target | probe-labelled cysteine peptide fold change (10 µM) | probe-labelled cysteine peptide fold change (50 µM) |
| --- | --- | --- |
| PHIP_Q8WWQ0_954_RCPFVPQMGDEVYYFR (UniProt Q8WWQ0) | -0.443 | -0.346 |
| PGK1_P00558_367+379_GCITIIGGGDTATCCAK (UniProt P00558) | 0.0105 | 0.315 |
| PGM2L1_Q6PCE3_125_GQVTSSCSSQR (UniProt Q6PCE3) | 0.144 | 0.21 |
| PFKFB2_O60825_255_TIYLCR (UniProt O60825) | 0.0693 | 0.0795 |
| PHF20_Q9BVI0_840_SVEESYITSEHCYQK (UniProt Q9BVI0) | -0.0843 | -0.0751 |
| PHF6_Q8IWS0_20_KCGFCK (UniProt Q8IWS0) | -0.343 | -0.281 |
| PGAM1_P18669_55_DAGYEFDICFTSVQKR (UniProt P18669) | -0.122 | -0.0384 |
| PGPEP1_Q9NXJ5_99_GLDNCR (UniProt Q9NXJ5) | -0.0665 | 0.000305 |
| PHPT1_Q9NRX4_69+71_QGCDCECLGGGR (UniProt Q9NRX4) | -0.0908 | -0.216 |
| PGD_P52209_402_SAVENCQDSWR (UniProt P52209) | 0.0858 | 0.122 |
| PGAM5_Q96HS1_12_QALQLAACGLAGGSAAVLFSAVAVGKPR (UniProt Q96HS1) | -0.442 | 0.0193 |
| PIK3AP1_Q6ZUJ8_147_AISEDSGCDSVTDTEPEDEK (UniProt Q6ZUJ8) | 0.0823 | -0.0712 |
| PFKP_Q01813_718_KFTTDDSICVLGISK (UniProt Q01813) | -0.0288 | -0.00564 |
| PHKA1_P46020_844_KVEALDEACTDLLSHQK (UniProt P46020) | -0.115 | 0.0948 |
| PHKB_Q93100_1066_GTCSYLTK (UniProt Q93100) | -0.0318 | 0.0233 |
| PEX3_P56589_65_TCNMTVLSMLPTLR (UniProt P56589) | -0.216 | -0.152 |
| PGM2_Q96G03_86_MNDLTIIQTTQGFCR (UniProt Q96G03) | -0.0764 | -0.0732 |
| PHKB_Q93100_280_QTLCSLLPR (UniProt Q93100) | 0.101 | 0.161 |
| PHKA1_P46020_238_GGPQSVIHVLADEVQHCQSILNSLLPR (UniProt P46020) | -0.259 | -0.0952 |
| PFKFB3_Q16875_178_DCNSAEAMDDFMK (UniProt Q16875) | -0.0401 | -0.0121 |
| PHF10_Q8WUB8_134_ELNVITETQCTLGLTALR (UniProt Q8WUB8) | -0.0941 | 0.0489 |

Record cards, from the list above. Values in the order: probe-labelled cysteine peptide fold change (10 µM) | probe-labelled cysteine peptide fold change (50 µM)
PIK3AP1_Q6ZUJ8_147_AISEDSGCDSVTDTEPEDEK (UniProt Q6ZUJ8) in the list: 0.0823 | -0.0712
PFKL_P17858_170_TYSHLNIAGLVGSIDNDFCGTDMTIGTDSALHR (UniProt P17858) in the list: 0.137 | -0.0944
PHKA1_P46020_238_GGPQSVIHVLADEVQHCQSILNSLLPR (UniProt P46020) in the list: -0.259 | -0.0952
